In article PMC8034651:
These are yes or no findings as the source states them, for the method shown. In cells and extracts the contact can be indirect. Some results given as binding are weak or reduced against the parent protein; the word gives no strength. For some of these results: Where a sequence is shown, tags or fusion partners need not be part of it.

Amino acid sequences for entries named in this document (tags omitted).
UniProt Q07955: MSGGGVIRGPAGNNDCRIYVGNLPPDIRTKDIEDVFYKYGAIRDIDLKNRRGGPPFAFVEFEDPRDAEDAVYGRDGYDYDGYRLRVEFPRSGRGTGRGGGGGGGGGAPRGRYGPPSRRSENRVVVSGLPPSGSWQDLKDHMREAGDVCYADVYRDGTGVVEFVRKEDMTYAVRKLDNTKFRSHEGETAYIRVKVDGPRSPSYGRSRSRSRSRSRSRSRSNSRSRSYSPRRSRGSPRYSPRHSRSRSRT
UniProt O75533: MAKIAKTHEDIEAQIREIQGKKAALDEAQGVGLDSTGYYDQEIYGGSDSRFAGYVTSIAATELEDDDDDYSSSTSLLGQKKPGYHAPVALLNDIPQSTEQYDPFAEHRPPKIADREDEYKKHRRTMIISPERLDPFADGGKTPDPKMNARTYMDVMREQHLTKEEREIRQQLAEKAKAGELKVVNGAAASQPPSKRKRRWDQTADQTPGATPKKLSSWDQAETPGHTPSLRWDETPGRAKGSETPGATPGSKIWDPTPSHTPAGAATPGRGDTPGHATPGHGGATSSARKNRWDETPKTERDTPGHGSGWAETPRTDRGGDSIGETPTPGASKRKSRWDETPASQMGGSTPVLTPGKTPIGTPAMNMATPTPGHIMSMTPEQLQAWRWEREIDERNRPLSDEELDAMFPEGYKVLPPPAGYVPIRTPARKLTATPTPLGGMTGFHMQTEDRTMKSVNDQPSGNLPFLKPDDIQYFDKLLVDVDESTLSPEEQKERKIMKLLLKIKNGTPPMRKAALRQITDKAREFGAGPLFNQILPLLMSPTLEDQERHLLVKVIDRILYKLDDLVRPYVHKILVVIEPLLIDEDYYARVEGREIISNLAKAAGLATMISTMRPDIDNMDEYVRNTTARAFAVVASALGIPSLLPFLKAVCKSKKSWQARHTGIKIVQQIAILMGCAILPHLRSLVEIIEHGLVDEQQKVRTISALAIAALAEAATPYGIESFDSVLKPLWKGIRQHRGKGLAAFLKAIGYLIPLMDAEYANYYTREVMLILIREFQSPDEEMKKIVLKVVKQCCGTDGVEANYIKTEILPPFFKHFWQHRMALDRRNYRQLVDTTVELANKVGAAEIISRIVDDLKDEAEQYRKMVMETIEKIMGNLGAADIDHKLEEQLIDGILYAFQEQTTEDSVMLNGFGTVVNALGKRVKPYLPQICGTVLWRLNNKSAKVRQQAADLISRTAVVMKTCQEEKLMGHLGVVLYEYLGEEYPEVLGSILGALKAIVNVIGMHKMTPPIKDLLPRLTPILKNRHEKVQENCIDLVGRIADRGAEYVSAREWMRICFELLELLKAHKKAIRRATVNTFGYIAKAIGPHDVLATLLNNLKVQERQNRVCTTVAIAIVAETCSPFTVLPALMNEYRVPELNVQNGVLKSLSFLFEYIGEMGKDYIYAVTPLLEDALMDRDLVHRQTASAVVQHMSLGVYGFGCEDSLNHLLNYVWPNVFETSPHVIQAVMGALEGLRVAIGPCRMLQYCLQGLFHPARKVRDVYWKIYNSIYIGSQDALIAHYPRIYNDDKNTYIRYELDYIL

How the values were obtained:
Pdcd7-Myc [1] = molecular target: T1, Pdcd7-Myc (UniProt Q9WTY1); experiment: co-IP; Pdcd7-Myc overexpressed in HEK293T cells, cells UV cross-linked (365 nm), modified RIPA lysate, anti-Myc immunoprecipitation on protein G Dynabeads, immunoblot for endogenous major spliceosome proteins
T1 sequence: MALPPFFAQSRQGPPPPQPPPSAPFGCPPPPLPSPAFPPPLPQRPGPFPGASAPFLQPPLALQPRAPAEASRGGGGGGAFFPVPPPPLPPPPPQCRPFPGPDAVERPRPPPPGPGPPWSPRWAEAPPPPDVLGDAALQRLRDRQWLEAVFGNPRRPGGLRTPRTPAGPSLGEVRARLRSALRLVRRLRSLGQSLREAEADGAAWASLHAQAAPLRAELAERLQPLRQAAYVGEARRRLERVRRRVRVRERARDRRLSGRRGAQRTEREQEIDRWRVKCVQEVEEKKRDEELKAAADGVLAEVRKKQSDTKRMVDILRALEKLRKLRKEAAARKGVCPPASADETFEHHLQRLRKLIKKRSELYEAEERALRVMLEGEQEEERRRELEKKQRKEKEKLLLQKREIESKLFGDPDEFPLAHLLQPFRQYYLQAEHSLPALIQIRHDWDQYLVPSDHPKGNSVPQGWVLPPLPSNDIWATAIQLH

Pdcd7-Myc [2] = molecular target: T1, Pdcd7-Myc; experiment: co-IP; as the Pdcd7-Myc immunoprecipitation, but lysate incubated with 50 ug/ml RNase A at 37 C for 15 min before pre-clearing; immunoblot
[3] = molecular target: T2, U2AF1 (human (endogenous in HEK293T)) (UniProt Q01081); experiment: co-IP; reciprocal IP: nuclear extract of untreated HEK293T cells, immunoprecipitation of endogenous U2AF1 (rabbit anti-U2AF35), immunoblot for PDCD7
T2 sequence: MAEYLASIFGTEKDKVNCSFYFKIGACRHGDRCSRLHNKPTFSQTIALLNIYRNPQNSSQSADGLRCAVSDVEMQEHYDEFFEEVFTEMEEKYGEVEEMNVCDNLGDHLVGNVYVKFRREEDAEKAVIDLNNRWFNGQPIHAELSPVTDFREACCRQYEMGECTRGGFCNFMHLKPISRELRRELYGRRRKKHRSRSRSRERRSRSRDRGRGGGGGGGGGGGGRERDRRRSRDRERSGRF

SRSF1 (from UniProt Q07955 1-248)
binding (Pdcd7-Myc [1]): binds

SF3B1 (from UniProt O75533 1-1304)
binding (Pdcd7-Myc [2]): binds | binding (Pdcd7-Myc [1]): binds

B1: U2AF1 (protein, UniProt Q01081 1-240)
chain: T2 sequence
binding (Pdcd7-Myc [2]): binds | binding (Pdcd7-Myc [1]): binds

B2: SNRNP40 (protein, UniProt Q96DI7 1-357)
chain: MIEQQKRKGPELPLVPVKRQRHELLLGAGSGPGAGQQQATPGALLQAGPPRCSSLQAPIMLLSGHEGEVYCCKFHPNGSTLASAGFDRLILLWNVYGDCDNYATLKGHSGAVMELHYNTDGSMLFSASTDKTVAVWDSETGERVKRLKGHTSFVNSCYPARRGPQLVCTGSDDGTVKLWDIRKKAAIQTFQNTYQVLAVTFNDTSDQIISGGIDNDIKVWDLRQNKLTYTMRGHADSVTGLSLSSEGSYLLSNAMDNTVRVWDVRPFAPKERCVKIFQGNVHNFEKNLLRCSWSPDGSKIAAGSADRFVYVWDTTSRRILYKLPGHAGSINEVAFHPDEPIIISASSDKRLYMGEIQ
binding (Pdcd7-Myc [1]): binds

B3: endogenous PDCD7 (protein, UniProt Q8N8D1 1-485)
chain: MALPPFFGQGRPGPPPPQPPPPAPFGCPPPPLPSPAFPPPLPQRPGPFPGASAPFLQPPLALQPRASAEASRGGGGAGAFYPVPPPPLPPPPPQCRPFPGTDAGERPRPPPPGPGPPWSPRWPEAPPPPADVLGDAALQRLRDRQWLEAVFGTPRRAGCPVPQRTHAGPSLGEVRARLLRALRLVRRLRGLSQALREAEADGAAWVLLYSQTAPLRAELAERLQPLTQAAYVGEARRRLERVRRRRLRLRERAREREAEREAEAARAVEREQEIDRWRVKCVQEVEEKKREQELKAAADGVLSEVRKKQADTKRMVDILRALEKLRKLRKEAAARKGVCPPASADETFTHHLQRLRKLIKKRSELYEAEERALRVMLEGEQEEERKRELEKKQRKEKEKILLQKREIESKLFGDPDEFPLAHLLEPFRQYYLQAEHSLPALIQIRHDWDQYLVPSDHPKGNFVPQGWVLPPLPSNDIWATAVKLH
binding [3]: binds
